# Measurements as given in patent US20230159931A1, “TARGETING THE PALMOTYLATION/DEPALMOTYLATION CYCLE TO TREAT INFLAMMATORY DISEASES” (CORNELL UNIVERSITY, priority 2020, published 2023).
# The chains behind the UniProt entries cited, without tags or fusion partners. Where a name states a change or a piece, a line headed by the entry shows the natural chain unless it says otherwise.
# UniProt P40763, whole entry: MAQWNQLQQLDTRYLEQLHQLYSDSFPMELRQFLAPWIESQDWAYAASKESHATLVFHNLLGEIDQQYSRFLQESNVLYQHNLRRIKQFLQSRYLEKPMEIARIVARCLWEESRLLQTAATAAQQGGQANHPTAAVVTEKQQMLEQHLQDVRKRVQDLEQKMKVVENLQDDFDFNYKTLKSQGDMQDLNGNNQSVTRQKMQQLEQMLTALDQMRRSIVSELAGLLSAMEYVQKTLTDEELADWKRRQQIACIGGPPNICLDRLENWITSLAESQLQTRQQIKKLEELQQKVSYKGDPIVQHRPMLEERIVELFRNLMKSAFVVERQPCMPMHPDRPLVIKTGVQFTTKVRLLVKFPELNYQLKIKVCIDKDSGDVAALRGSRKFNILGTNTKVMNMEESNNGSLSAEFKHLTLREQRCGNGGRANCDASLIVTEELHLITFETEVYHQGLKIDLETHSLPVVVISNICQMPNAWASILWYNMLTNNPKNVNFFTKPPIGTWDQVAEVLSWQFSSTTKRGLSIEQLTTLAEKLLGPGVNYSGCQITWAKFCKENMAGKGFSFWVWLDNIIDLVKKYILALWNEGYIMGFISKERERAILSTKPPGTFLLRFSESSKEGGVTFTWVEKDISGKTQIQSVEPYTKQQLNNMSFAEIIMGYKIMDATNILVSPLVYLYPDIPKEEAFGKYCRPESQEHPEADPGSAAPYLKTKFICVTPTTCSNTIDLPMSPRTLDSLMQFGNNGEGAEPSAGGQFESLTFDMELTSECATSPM
# Results are given in words; binding and its absence hold for the method and conditions named. Some entries that bind do so weakly or less than the wild type.
# Target: Haemagglutinin (HA)-tagged STAT3 (UniProt P40763)
# Experiment: association of tagged proteins co-expressed in HEK293T cells
substance,measurement,value
APT2(C2S) (from UniProt Q9WTL7 1-231) (enzyme),binding,binds
